# Data: PubChem BioAssay AID624297 (National Center for Advancing Translational Sciences (NCATS), 2012)
# Only a part is listed here, and it is no random draw. Inconclusive results are not listed. Calls of active or inactive are those of the source. Calls come from the whole dose curve; as a rule, active = well fitted activation curve with a large enough effect; inconclusive = small, poorly fitted or top-dose-only effect; inactive = no such curve, though single readings can be large or run the other way.
# Assay: A quantitative high throughput screen for small molecules that induce DNA re-replication in SW480 colon adenocarcinoma cells. Note: nearly all actives have a fitted effect of over 55% in size.
# Conditions: Hoechst DNA content imaging, 48 h; series mostly up to 46.1 µM
# From the text: H Molecular Libraries Probe Production Network [MLPCN] NIH Chemical Genomics Center [NCGC] MLPCN Grant: Fast Track K99 CA136555 Assay Provider: Melvin DePamphilis, NICHD, NIH Assay Overview Eukaryotic cells normally restrict genome duplication to once per cell division. When this process is aberrant, DNA re-replication occurs when cells reinitiate DNA replication before the first round of replication is complete. DNA re-replication induces the DNA damage response, arrests cell proliferation, and triggers apoptosis. The cell cycle components cyclin A, Cdt-1, Cdc6 and geminin are critical regulators of this process and their misregulation results in DNA re-replication in normal and cancer cells. To identify compounds that induce re-replication in normal cells, an image-based assay was used to measure DNA content of nuclei, as detected by the fluorescent DNA binding dye, Hoechst. Cell nuclei were imaged by a fluorescence scanning plate imager and compounds that induce DNA re-replication were identified by the increase of nuclei with elevated fluorescence intensity
# For screening, 250 cells in 5 uL/well were dispensed into black clear 1536-well plates (Aurora) using a solenoid-based dispenser. Following transfer of 23 nL compound or DMSO vehicle by a pin tool, the plates were incubated 48 hr at 37 C and 5% CO2. After addition of 1 uL/well Hoescht stain, the plates were incubated 40 min at 37 C, 5% CO2 and total intensity of fluorescent objects (nuclei) were enumerated by an Acumen Explorer Ex3 (TTP LabTech) fluorescence scanning plate imager (405 nm excitation, 500-530 nm emission). Keywords: NIH Roadmap, MLPCN, MLI, MLSMR, qHTS, NCGC, DNA replication, cancer
# Potency is the fitted concentration of half-maximal effect.
row,SMILES,Potency
1,CNC1CCc2cc(OC)c(OC)c(OC)c2-c2ccc(SC)c(=O)cc21 (centres undefined),active: 5.2 nM
2,COc1cc2c(c(OC)c1OC)-c1ccc(SC)c(=O)cc1C(N)CC2 (centres undefined),active: 58 nM
3,CS(=O)(=O)Nc1cccc2[nH]ncc12,inactive
4,COc1cc2c(c(OC)c1OC)-c1ccc(OC)c(=O)cc1C(N)CC2 (centres undefined),active: 259 nM
